From patent publication US11268072B2, “Composition of matter: engineering of Escherichia coli phage K1E” (The Charles Stark Draper Laboratory, Inc., priority 2017, dated 2022)
For at least one compound, name, drawing or mass did not settle the structure.

Tested on: K1 capsule expressing E. coli
Assay: Antibiotic susceptibility profiling using recombinant K1E phage reporter (FIG. 7)
Format: cell-based

Row | SMILES | antibiotic susceptibility of the E. coli in the test sample (100 μg/ml rifampicin) | antibiotic susceptibility of the E. coli in the test sample (20 μg/ml tetracycline)
1 | CO[C@H]1/C=C/O[C@@]2(C)Oc3c(C)c(O)c4c(O)c(c(/C=N/N5CCN(C)CC5)c(O)c4c3C2=O)NC(=O)/C(C)=C\C=C\[C@H](C)[C@H](O)[C@@H](C)[C@@H](O)[C@@H](C)[C@H](OC(C)=O)[C@@H]1C [rifampicin] | sensitive | 
2 | CN(C)[C@@H]1C(O)=C(C(N)=O)C(=O)[C@@]2(O)C(O)=C3C(=O)c4c(O)cccc4[C@@](C)(O)[C@H]3C[C@@H]12 [tetracycline] |  | sensitive
